Results taken from PubChem BioAssay AID463116 (University of Pittsburgh Molecular Library Screening Center, 2010).
The list shows a part of the results. The main result of the screen is listed elsewhere. These columns were measured beside it and carry no call. The list favours compounds with an active or inconclusive main result.

assay: dynein cargo transport inhibitors, GR-EGFP translocation, confirmation, imaging, high-content imaging, GR-EGFP cells (AID 463116); conditions: 3617.4 GR-EGFP nuclear translocation imaging, dexamethasone-induced; measured here: cell count per field; at 20 µM

SMILES | z-score
Cc1nc([N+](=O)[O-])c(Br)n1CC(=O)c1ccc2ccccc2c1 | 0.539
CN(C(=O)CCl)C1CCCc2ccccc21 (stereo unspecified) | -0.0293
CCN(CC)c1ccc2cc(-c3nc(-c4ccc(OC)cc4)cs3)c(=O)oc2c1 | -0.171
COCCN(C(=O)CCl)C(C(=O)NC1CCCCC1)c1ccccc1C (stereo unspecified) | 0.101
COc1ccccc1C(C[N+](=O)[O-])c1c(N)n(C)c(=O)n(C)c1=O (stereo unspecified) | -0.364
O=C1ON=C(c2ccccc2)/C1=C\c1ccco1 | -0.127
CCCCNc1c2c3c(cccc3n(C)c1=O)C(=O)c1ccccc1-2 | -0.223
COc1cccc(Nc2ncccc2C(=O)NCc2ccccc2)c1 | 0.17
CC(=O)Cn1ncc(Br)c(Br)c1=O | 0.41
COc1ccc(OC)c(S(=O)(=O)Nc2ccc(O)c3ccccc23)c1 | 0.0309
COC(=O)c1cc(NC(=O)c2ccccc2)c(=O)oc1/C=C/Nc1ccc(Oc2ccccc2)cc1 | 0.51
C=CCS(=O)(=O)c1nc2ccccc2s1 | 0.432
Cc1ccc(OCC(=O)c2ccc(Cl)s2)c([N+](=O)[O-])n1 | 0.00933
CC(=O)OCCCNc1cc(Sc2ccc(C)cc2)c2nonc2c1[N+](=O)[O-] | -0.113
Cc1ccc(C(C[N+](=O)[O-])Sc2ccc(N)cc2)cc1 (stereo unspecified) | 0.226
O=C(CSC1=Nc2ccccc2C2CC=NN12)Nc1ccc2c(c1)OCO2 (stereo unspecified) | -0.295
CCCn1c(CC)nc([N+](=O)[O-])c1S(=O)(=O)c1ccccc1 | 0.972
CCOC(=O)c1c(-c2ccc(C)o2)csc1NC(=S)NC(=O)N(C)C | 0.594
CC[n+]1c(/C=C2\Sc3ccccc3N2C)ccc2cccc(C)c21 | -0.319
O=c1cc(N=Nc2ccc(Cl)cc2)[nH]c(=O)[nH]1 | 0.215
CC(NCC(O)COCCC12CC3CC(CC(C3)C1)C2)c1ccccc1 (stereo unspecified) | -4.8
COc1ccc(CN=Cc2[nH]c3ccc(Br)c(Cl)c3c2O)cc1 | -0.031
Nc1c(C(=O)N/N=C/c2ccc(F)cc2)oc2nc(-c3ccccc3)cc(-c3ccco3)c12 | -0.855

Looked up by structure from the entries so far:
SMILES | z-score
COC(=O)c1cc(NC(=O)c2ccccc2)c(=O)oc1/C=C/Nc1ccc(Oc2ccccc2)cc1 | 0.51
COCCN(C(=O)CCl)C(C(=O)NC1CCCCC1)c1ccccc1C (stereo unspecified) | 0.101

More compounds follow:

SMILES | z-score
CCN1CCN(C2=CC3=CC(=C(C#N)C#N)CCC3CC2)CC1 (stereo unspecified) | -0.731
O=C(CCl)Nc1ccc(-c2ccccc2)cc1 | 0.0215
CC(=O)n1cc(C(C[N+](=O)[O-])SCCN)c2ccccc21 (stereo unspecified) | 1.41
COc1ccc(/C=C/C(=O)c2c(O)c(OC)c3occc3c2OC)cc1 | -0.0552
O=c1c(Cl)c(Cl)cnn1Cc1nnc(-c2ccccc2Br)o1 | -0.574
O=C(CCC(=O)Nc1ccc(Cl)cc1Cl)N/N=C/c1ccc([N+](=O)[O-])o1 | 0.696
CCCC(=O)OCCNc1cc(SCCC(=O)OC)c2nonc2c1[N+](=O)[O-] | 0.158
CCN1CCN(Cc2c(O)ccc3c2O/C(=C\C=C\c2ccccc2)C3=O)CC1 | 0.188
CC(C)N1C/C(=C/c2ccsc2)C(=O)/C(=C/c2ccsc2)C1 | 0.35
COc1ccc(/C=C\c2nc(=O)c3ccccc3o2)cc1 | 0.0205
COc1cccc(N(C(=O)CCl)C(C(=O)NCCc2ccccc2)c2cccs2)c1 (stereo unspecified) | -0.138
COc1cccc(F)c1C(C[N+](=O)[O-])c1c(N)n(C)c(=O)n(C)c1=O (stereo unspecified) | -0.863
CC1(C)Cc2c(C#N)c(NC3CCCCC3)nc(-c3ccco3)c2CO1 | 0.171
O=C(NC(=S)Nc1ccc(-c2ccc(CO)o2)cc1)c1cccs1 | 0.174
CCn1c(=O)c([N+](=O)[O-])c(Cl)c2ccccc21 | 0.293
CC(C)CCn1c(=O)c2ccccc2n2c(CCl)nnc12 | -0.545
CN1CCN(C2=CC3=CC(=C(C#N)C#N)CCC3CC2)CC1 (stereo unspecified) | 0.0583
O=C1ON=C(c2ccc(Cl)cc2)/C1=C/c1ccc(O)cc1 | -1.16
O=C(NC1CCCC1)C(c1ccc(Cl)cc1)N(Cc1ccc(F)cc1)C(=O)CCl (stereo unspecified) | 0.14
COc1ccc(/C=c2\s/c(=C/C(=O)c3ccc(C)cc3)[nH]c2=O)cc1OC | 0.302
CC(=O)C(Cl)C(=O)Nc1ccccc1 (stereo unspecified) | 0.0532
N#Cc1ccc(-c2cccnc2)nc1SCC(=O)c1ccccc1 | -0.472
CC(C)CC(=O)/C=C/n1c(=S)oc2ccccc21 | -0.302

SMILES | z-score
CCC(C)(C)C1CCc2[nH]nc(C(=O)N/N=C(\C)c3ccco3)c2C1 (stereo unspecified) | -0.642
COc1ccc(NC(=O)c2oc3cc(C)c(C)cc3c2C)c(OC)c1 | 0.308
CC(=O)c1ccc(Sc2nnnn2-c2ccccc2)c([N+](=O)[O-])c1 | 0.114
c1ccc(-c2ccc(-c3nccc4ccccc34)[nH]2)cc1 | 0.0141
CCN(CC)c1ccc(/C=C/C(=O)c2ccc(Br)cc2)cc1 | -0.263
CCOC(=O)c1c2ccc(OCC(=O)N/N=C/c3ccc(Cl)cc3)cc2n2ccccc12 | 0.498
CC(C(Sc1ccccc1N)c1ccccc1)[N+](=O)[O-] (stereo unspecified) | 0.383
Cc1ccc(-n2nnnc2C(Cl)(Cl)c2nnnn2-c2ccc(C)cc2)cc1 | 0.693
N#C/C(=C/c1ccc(N2CCOCC2)o1)c1ccc(Cl)cc1 | -0.269
Cc1ccc(N(C(=O)CCl)C(C(=O)NC2CCCCC2)c2cccnc2)cc1C (stereo unspecified) | 0.533
COc1ccc(CN(C)C(=O)CCl)cc1 | 0.629
Nc1ccc(N2CCCCCC2)cc1 | -1.13
N#Cc1cccc(N=c2ssnc2Cl)c1 | 0.209
COc1ccc(NC(=O)C(Cl)=C(Cl)Cl)cn1 | -0.605
COc1ccc(N/C=C/c2nc(SC)nnc2C)cc1 | -0.722
CCOC(=O)C(=Cc1ccc(-n2ccnc2)cc1)C(=O)OCC | -0.35
O=[N+]([O-])c1ccc(Sc2nnnn2-c2ccccc2)nc1 | 0.37
COCCCn1c(O)c(/C=C2\N=C(C#N)C(=Nc3ccc(C)cc3)O2)sc1=S | 0.475
Cc1cc(Cl)n2c(nc3ccccc32)c1C#N | -0.146
Cc1ccc2nc(Cl)c3cc(C(=O)N(CCN(C)C)Cc4ccco4)sc3c2c1 | -3.86
Nc1c(C(=O)c2ccccc2)sc2nsc(SCCN3CCCC3)c12 | -0.367
CCOC(=O)COc1ccc2ccccc2c1/C=C/[N+](=O)[O-] | -2.88
Cc1cc(Oc2ccc(-c3ccccc3)cc2)n2ncnc2n1 | 0.251

Not a retest: two of the compounds above.
SMILES | z-score
CC(=O)c1ccc(Sc2nnnn2-c2ccccc2)c([N+](=O)[O-])c1 | 0.114
c1ccc(-c2ccc(-c3nccc4ccccc34)[nH]2)cc1 | 0.0141

(continued)

SMILES | z-score
COc1cc(/C=C/[N+](=O)[O-])ccc1OCc1cccc(C(=O)O)c1 | -0.353
CCOC(=O)CS(=O)(=O)c1nc(-c2ccc(F)cc2)cc(C(F)(F)F)n1 | -1.09
C=CCn1c(Sc2ncc([N+](=O)[O-])s2)n[nH]c1=O | -0.113
COc1ccc([N+](=O)[O-])c(S(=O)(=O)c2ccccc2)n1 | -0.996
COc1ccc(-c2cccc([C@H]3[C@@H]4C=CCC[C@@]4(C)C(=O)N3Cc3ccccc3)c2)cc1 | 0.123
CCCCn1c(CCC)nc([N+](=O)[O-])c1Sc1ccc(Cl)cn1 | 0.503
Cc1c(N=C2C=CC(=O)c3ccccc32)c(=O)n(-c2ccccc2)n1C | -0.176
Cc1cc(C(=O)CCl)c(C)n1-c1ccon1 | 0.778
O=C(OCn1ncc(Br)c(Br)c1=O)c1ccc(F)cc1 | 0.531
Cn1cc(Br)c(NC(=O)/C=C/C(=O)O)n1 | 0.395
CCCC(=O)N1CCN(c2ccc(NC(=O)c3ccc([N+](=O)[O-])o3)cc2Cl)CC1 | 0.517
O=C1N=C2N(CCN3CCCCC3)c3ccccc3N2/C1=C\c1ccc([N+](=O)[O-])o1 | 0.0331
COc1ccccc1NS(=O)(=O)c1cc([N+](=O)[O-])ccc1N/N=C/c1sc(N2CCOCC2)nc1-c1ccccc1 | -1.13
CCOc1ccc(N2C(=O)CC(Sc3n[nH]c(-c4ccccc4)n3)C2=O)cc1 (stereo unspecified) | 0.119
Cc1cc(NC(=O)c2coc(=O)c(Br)c2)ccc1C(C)C | -0.291
CCOC(=O)C1=C(O)c2ccccc2C(=O)/C1=C\c1ccc(CC)cc1 | -4.55
COC(=O)CS(=O)(=O)c1nnc([C@H](Cc2ccccc2)NC(=O)OC(C)(C)C)o1 | 0.314
CCN1CCN(c2ccc(NC(=O)c3ccc([N+](=O)[O-])o3)cc2Cl)CC1 | 0.309
Cn1c(=O)oc2cc(S(=O)(=O)Nc3ccc4c(c3)OCCO4)ccc21 | 0.262
Cc1ccc(Sc2ccc(NC(=O)CCl)cc2)cc1C | -0.0367
COc1ccc(/C=C/C(=O)c2cc(F)ccc2OC(=O)c2ccccc2OC)cc1OC | -0.424
CCN(CC)c1ccc(N=Cc2ccc([N+](=O)[O-])o2)cc1 | 0.316
O=C(CN1CCCc2ccccc21)NC(=O)NC1CCCCC1 | -0.197

SMILES | z-score
O=c1c(Cl)c(Cl)cnn1Cc1ccc(F)cc1 | -0.572
COC(=O)C(=C/C(C)=C/c1cccs1)C(=O)OC | 0.436
Oc1c(Cl)cc(Cl)c2c1NCCC2 | 0.144
C/C(CCc1oc2c(Br)cc(Br)cc2c1-c1ccc(C)o1)=N\O | 0.0863
CC1CCN(CC(CS(=O)(=O)c2ccc([N+](=O)[O-])cc2)N2CCC(C)CC2)CC1 (stereo unspecified) | -0.618
ClC1=C(Cl)C(Cl)=C(Cl)C1=C/C=C/c1ccccc1 | -0.17
O=c1oc(-c2ccco2)nc2ccccc12 | 0.76
N#CCCN(C(=O)CCl)c1cccc(Cl)c1 | 0.818
Cc1[nH]c2ccccc2c1/C=N/Nc1ccc([N+](=O)[O-])cc1 | 0.212
Cc1cccc(NC(=O)CCC(=O)OCC(=O)c2ccc(Oc3ccc([N+](=O)[O-])cc3)cc2)c1 | 0.246
O=C(CC1Sc2ncnn2C1=O)Nc1ccc(Cl)cc1 (stereo unspecified) | 0.341
Cn1ccnc1Sc1cc(NCCCO)c([N+](=O)[O-])c2nonc12 | -0.104
CS(=O)(=O)c1nc(-c2ccc(F)cc2)cc(C(F)(F)F)n1 | -0.981
O=C(Oc1ccccc1)c1cccc(COC(=O)c2cnccn2)c1 | 0.387
COc1ccc(NC(=O)/C(Cl)=C(/Cl)S(=O)(=O)Cc2ccccc2)cn1 | -1.56
COc1ccc(C2CC(c3cccs3)=NN2c2ccc(C=O)cc2)cc1 (stereo unspecified) | 0.0282
CC(=O)Nc1c([N+](=O)[O-])cc(C)c(Cl)c1[N+](=O)[O-] | 0.177
CCCCc1ccc(/C=C2\C(=O)c3ccccc3C(O)=C2C(=O)OCC)cc1 | -0.959
Cc1cc(C2=CC(C)(c3cc(C)oc3C)Nc3nc(C(F)(F)F)nn32)c(C)o1 (stereo unspecified) | 0.429
